PubChem BioAssay AID504764 – Drosophila RNAi Screening Center – 2011
In all, the deposit lists about 22,000 reagents; below is an unselected part of those with a known target gene and a result. Of all reagents, 403 (1.9%) were called active. 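Unnormalised raw counts per well; ratio z-scores behind the hit calls and whether each hit raises or lowers signal are not deposited.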 The numbers tell different reagents against one gene apart. Names joined by + are all predicted targets of the reagent. The record does not give: the amount of reagent.

Screen: 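Genome-wide screen for regulators of Notch-driven gene expression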 (primary screen)
System: Drosophila Kc167 cells
Knock-down reagent: long dsRNA against Drosophila genes
Duration: about 5 days (4 days dsRNA, then 24 h after transfection)
Conditions: transfection of constitutively active membrane-tethered Notch lacking the extracellular domain, read 24 h later
Measured: 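Light from a Notch-responsive E(spl)m3 luciferase reporter under active Notch, with control-promoter and no-Notch reporter wells to normalise; raw counts from paired wells a and b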
Reading the numbers: induced reporter light, run 1, well a and induced reporter light, run 1, well b: higher = more light from the Notch target reporter with active Notch; control promoter light, run 1, well a and control promoter light, run 1, well b: higher = more light from the viral control promoter (cell number, transfection, viability); uninduced reporter light, run 1, well a: higher = more light from the Notch target reporter without active Notch
Hit rule: 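Hit if the duplicate-averaged log2 ratio of induced to control-promoter light gives a plate-wise z beyond ±2, or induced to uninduced beyond ±1.8; weak-control or discordant-duplicate wells dropped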
Calls: active = modifier hit (raised or lowered Notch signal); inactive = not a hit

target gene | dsRNA no. | induced reporter light, run 1, well a | induced reporter light, run 1, well b | control promoter light, run 1, well a | control promoter light, run 1, well b | uninduced reporter light, run 1, well a | Outcome
CG4133 | 1 | 19670 | 22232 | 25350 | 11910 | 4650 | inactive
CG15615 | 1 | 67720 | 1.31e5 | 1.67e5 | 1.63e5 | 12065 | inactive
Prp31 | 1 | 81380 | 69015 | 52625 | 59525 | 4535 | inactive
CG6845 | 1 | 1.17e5 | 1.36e5 | 2.07e5 | 2.26e5 | 10190 | inactive
yip2 | 1 | 1.33e5 | 1.52e5 | 94015 | 1.12e5 | 18955 | inactive
CG42583 | 1 | – | – | – | – | – | active
Aldh | 1 | 1.11e5 | 1.59e5 | 66270 | 81150 | 15620 | inactive
Rep | 1 | 40330 | 40665 | 52955 | 66350 | 3175 | inactive
ocm | 1 | 98635 | 1.14e5 | 1.00e5 | 1.02e5 | 11855 | active
PKD | 1 | 1.61e5 | 1.55e5 | 1.78e5 | 1.79e5 | 10225 | inactive
niki | 1 | 1.79e5 | 1.38e5 | 1.45e5 | 1.51e5 | 9488 | inactive
Rab19 | 1 | 1.51e5 | 1.38e5 | 1.56e5 | 1.53e5 | 6560 | inactive
spd-2 | 1 | 1.47e5 | 1.60e5 | 1.36e5 | 1.33e5 | 11100 | inactive
Aef1 | 1 | 1.10e5 | 90960 | 71700 | 67945 | 5920 | inactive
ppk27 | 1 | 83855 | 85180 | 1.81e5 | 1.30e5 | 4565 | inactive
CG15042 | 1 | 81640 | 59325 | 82390 | 70915 | 8040 | inactive
CG11537 | 1 | 1.24e5 | 1.26e5 | 1.14e5 | 51715 | 11900 | inactive
CG32773 (retired record) | 1 | 66845 | 62645 | 67335 | 84990 | 4738 | inactive
MSBP | 1 | 1.97e5 | 1.81e5 | 2.26e5 | 2.16e5 | 12465 | inactive
CG8679 | 1 | 55235 | 37000 | 40255 | 54880 | 2530 | inactive
cv | 1 | 1.45e5 | 1.51e5 | 3.22e5 | 2.75e5 | 11875 | inactive
IFT46 | 1 | 67810 | 53005 | 72080 | 76990 | 4635 | inactive
CG6678 | 1 | 2.03e5 | 1.69e5 | 2.05e5 | 2.59e5 | 15030 | inactive
Smr | 1 | 7050 | 7380 | 8325 | 8375 | 3710 | inactive
Smr | 2 | 6735 | 6280 | 10810 | 13525 | 1932 | inactive
Mdh1 (retired record) | 1 | 1.30e5 | 1.45e5 | 63910 | 99765 | 16255 | inactive
CG31099 | 1 | 1.41e5 | 1.33e5 | 1.69e5 | 1.47e5 | 12565 | inactive
mRpL23 | 1 | 1.26e5 | 1.15e5 | 1.48e5 | 1.93e5 | 5800 | inactive
salt | 1 | 2.44e5 | 2.12e5 | 3.04e5 | 2.77e5 | 14605 | inactive
Girdin | 1 | 1.48e5 | 1.43e5 | 3.02e5 | 2.38e5 | 7838 | inactive
clu | 1 | 1.45e5 | 1.35e5 | 2.37e5 | 2.42e5 | 12600 | inactive
CG4546 | 1 | 2.01e5 | 1.92e5 | 1.94e5 | 2.14e5 | 17440 | inactive
CG31974 | 1 | 1.60e5 | 1.39e5 | 1.13e5 | 57165 | 12245 | inactive
CG9106 | 1 | 1.52e5 | 1.39e5 | 2.24e5 | 2.13e5 | 11315 | inactive
CG33307 | 1 | 1.24e5 | 1.11e5 | 1.79e5 | 1.42e5 | 10760 | inactive
CG10912 | 1 | 37070 | 37170 | 58475 | 59385 | 3520 | inactive
Teh1 | 1 | 1.36e5 | 1.03e5 | 72210 | 63360 | 10360 | inactive
Sec6 | 1 | 86205 | 80680 | 1.59e5 | 1.30e5 | 7695 | inactive
CG42471 | 1 | 1.20e5 | 1.18e5 | 1.60e5 | 1.57e5 | 8910 | inactive
wbl | 1 | 84355 | 77660 | 97620 | 1.28e5 | 5245 | inactive
CG5493 + CG5327 | 1 | 1.12e5 | 99040 | 1.48e5 | 99025 | 9360 | inactive
CG34135 + Nasp | 1 | 67935 | 70735 | 54395 | 48835 | 4795 | inactive
CG5162 | 1 | 99355 | 86720 | 1.08e5 | 81760 | 13010 | inactive
Spn28Da | 1 | 1.82e5 | 1.73e5 | 1.15e5 | 1.59e5 | 22775 | inactive
CG9173 | 1 | 91470 | 1.05e5 | 1.58e5 | 1.23e5 | 6300 | inactive
CG4250 | 1 | 2.36e5 | 2.25e5 | 1.90e5 | 1.91e5 | 18480 | inactive
CG42340 | 1 | 83885 | 72205 | 80355 | 67545 | 6028 | active
CG42340 | 2 | 1.38e5 | 1.26e5 | 2.35e5 | 2.68e5 | 9305 | inactive
CG42340 | 3 | 1.40e5 | 1.58e5 | 2.71e5 | 2.76e5 | 9295 | inactive
CG42340 | 4 | – | – | – | – | – | inactive

Hits, of those listed so far:
target gene | dsRNA no. | induced reporter light, run 1, well a | induced reporter light, run 1, well b | control promoter light, run 1, well a | control promoter light, run 1, well b | uninduced reporter light, run 1, well a | Outcome
CG42583 | 1 | – | – | – | – | – | active
ocm | 1 | 98635 | 1.14e5 | 1.00e5 | 1.02e5 | 11855 | active
CG42340 | 1 | 83885 | 72205 | 80355 | 67545 | 6028 | active
